According to the supplement of paper PMC10338343:
± gives the standard deviation. Only a part is listed here, and it is no random draw. Many entries were measured with a wide error.

Test system: MIWI (PIWIL1) piRISC loaded with Kctd7 piRNA (30 nt)
Experiment: pre-steady-state target cleavage rate (min^-1); MIWI and MILI are mouse PIWI proteins and EfPiwi is from a freshwater sponge; tags in brackets are library labels; higher = faster piRNA-guided slicing of the target
Settings: guide: Kctd7 piRNA 5'p-UGUUAAUCUCUCAGAGAAGGUGACAGUGAU; auxiliary factor: 500 nM mouse GTSF1
Method: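 Cleave-'n-Seq: a library of target RNAs (target site embedded in constant flanks, ACAGCATTCCGCGTTAGTGATATCCG... 5' flank; DNA-blocked outside the site) at 0.1 nM was incubated with 1 nM active mouse MILI or MIWI piRISC (synthetic 5'-monophosphorylated piRNA guide) with or without 500 nM mouse GTSF1 at 33 °C for 1 min to 16 h. Uncleaved targets were sequenced and normalised to non-target controls, and the pooled three trials were fitted to a burst-and-steady-state model to give the pre-steady-state cleavage rate (min^-1; k3 is constrained to at most 1e-4). Sequence is the target site only; target names encode pairing extent (gX:gY) and contiguous / 1-mismatch / 2-mismatch / bulge geometry. Fits with R² ≤ 0 are excluded.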

| Sequence | pre-steady-state target cleavage rate |
| --- | --- |
| UAGUGAGACACCUACUCUGAGAGAUUAACA | 0.399 ± 0.03 |
| UAGUGACAGUGCUUCUCUGAGUGAUAAACA | 0.000128 ± 0.027 |
| UAGUGAGUCACCUUCUGAGAGAGAUUUUGA | 0.00231 ± 0.0062 |
| UAGUGUGUCACCUUGUCUGAGAGAUAUUGA | 0.00143 ± 0.0066 |
| UAGUGAGUCACCUUGAGUGAGAGAUUAAGA | 0.000965 ± 0.011 |
| UAGUGACUCACCUUCUCUGAAGAUUAACA | 0.000977 ± 0.0068 |
| AUCACUGUCACCUUCUCACUGAGAUUAAGA | 0.00276 ± 0.005 |
| UAGGCUGUCACCUUCUCUGAGAGAUUAACA | 0.803 ± 0.045 |
| UAGUGACAGUGGAAGAGACUCACAUUAACA | 0.000147 ± 0.02 |
| UAGACUGUCUCCUUCUCUGAGAGAUAUUGA | 0.00267 ± 0.0037 |
| UAGUGUGUCACCUUCAGAGAGAGAUUAUGA | 0.00188 ± 0.008 |
| UAGUCUGUCAGCUUCUCUGAGAGAUAUUGA | 0.00195 ± 0.0047 |
| UAGUCUGUCACCUUCUCUGAGACUAUAUGA | 0.000794 ± 0.0075 |
| UAGUGACAGUGGAACUCUGAGAGAUUAAA | 0.000156 ± 0.06 |
| UAGUGACAGUGGAAGAGAGAGCAGAUUAACA | 0.00229 ± 0.0038 |
| UAAACUGUCACCUUCUCUGAGAGAUUAACA | 0.677 ± 0.03 |
| UACACUGUCAGGAUCUCUGAGAGAUUUUGA | 0.000687 ± 0.009 |
| UAGUCUGUCACCUUCUCUGAGUGAUUAUCA | 0.015 ± 0.0044 |
| UAGUGACUCACCUUGACUGAGAGAUAUUGA | 0.000283 ± 0.034 |
| UAGACUGUGUCCUUCUCUGAGAGAUUUUGA | 0.0012 ± 0.0071 |
| UAGUGACAGUGCUUCUCUGACUCAUUAACA | 0.000533 ± 0.013 |
| UAGUGACAGACCUUCUCUGAAGAGAUUAACA | 0.00012 ± 0.038 |
| UAGUGACAGACGUUCUCAGAGAGAUUAACA | 0.00148 ± 0.0067 |
| UACACUGUCACCUUCUCACUGAGAUUAAGA | 0.00198 ± 0.0074 |

Another view of some results above.
Sequence	pre-steady-state target cleavage rate
UAGUGACUCACCUUCUCUGAAGAUUAACA	0.000977 ± 0.0068
UAGUGACAGUGCUUCUCUGACUCAUUAACA	0.000533 ± 0.013

Remaining list, next part:

| Sequence | pre-steady-state target cleavage rate |
| --- | --- |
| UAGUGACACACCUUCUUCUGAGAGAUUAACA | 0.00289 ± 0.0048 |
| UAGUGACAGUGGAUCUCUGACAGAUUAUCA | 0.000181 ± 0.043 |
| UACACUGUUCACCUUCUCUGAGAGAUUAACA | 0.614 ± 0.025 |
| UAGUGAGUCACCUUGUCUGAGAGAUAUUGA | 0.00169 ± 0.0063 |
| UAGACUGUCAGCUUCUCUGUGAGAUUAACA | 0.198 ± 0.0095 |
| UAGUGACAGUGCUUCUCUGUGAGAUUAAGA | 0.000459 ± 0.0097 |
| UAGUGACAGACCUUCUCCUGAGAGAUUAACA | 0.00149 ± 0.0075 |
| UACACUCAGACCUUCUCUGAGAGAUAUUGA | 0.00374 ± 0.0038 |
| AUCACUGUCACCUUGUCUGAGAGAUAAACA | 0.552 ± 0.085 |
| UAGUGACAGACCAAGUCUGAGAGAUUAACA | 0.000991 ± 0.0075 |
| UAGUGUGUCACCAACUCUGAGAGAUUUUGA | 0.00183 ± 0.0059 |
| UAGACUGUCACCUUGAGUGAGAGAUUAACA | 0.00286 ± 0.0032 |
| UAGUGACACUGCUUCUCUGAGAGAUUAUGA | 0.00142 ± 0.0051 |
| UAGUGACAGACCUUCUCUCUGAGAUUAAGA | 0.000402 ± 0.023 |
| UAGACUGUCACCUUCUCUGAGAGAUUAACA [g2:g27:cont:t1A] | 0.805 ± 0.05 |
| UAGUGACAGUCCUUCUGAGAGAGAUUAACA | 0.000681 ± 0.011 |
| UAGUGACUCACCUUCUCUGUGACAUUAACA | 0.0765 ± 0.0076 |
| UAGUGACUCACCUUCUCUGAGAGUUAUUGA | 0.00242 ± 0.004 |
| AUCACUGUCAGCUUCUCUGAGAGUUUAACA | 0.149 ± 0.018 |
| UAGUGACUCACCUUCUCACUGAGAUAUUGA | 0.000137 ± 0.06 |
| UAGUGACAGUGGAAGAGUGAGAGAUUUUCA | 0.000132 ± 0.066 |
| UAGUGACUCACCUUCUCAGAGAGAUUUUGA | 0.00144 ± 0.006 |
| AUCACUCUCACCUUCUCUGAGAGAUUAUGA | 0.049 ± 0.018 |
| UAGUGACAGUGGAACUCUGAGAGAUUAAGA | 0.00012 ± 0.038 |

Nothing new here: an excerpt of the list.

| Sequence | pre-steady-state target cleavage rate |
| --- | --- |
| AUCACUGUCAGCUUCUCUGAGAGUUUAACA | 0.149 ± 0.018 |
| UAGUGACUCACCUUCUCACUGAGAUAUUGA | 0.000137 ± 0.06 |

Next entries.

| Sequence | pre-steady-state target cleavage rate |
| --- | --- |
| UAGACUGUCAGCUUCUCUGAGAGAUUUUGA | 0.000881 ± 0.0084 |
| UAGUGAGUGUCCUUCUCUGAGAGAUAUUGA | 0.00104 ± 0.0066 |
| UAGUGACAGUGCUUCUAUGAGAGAUUAACA | 0.00203 ± 0.0046 |
| AUCACUGUCACCUUCUCUGAGUCUUAUUGA | 0.00266 ± 0.0045 |
| UAGUGACAGUCCUUCUCGAGAGAUUAACA | 0.00243 ± 0.0051 |
| UAGUGACAGUGGUUCUCUGUCUCUAAUUGA [g12:g18:cont:t1A] | 0.000193 ± 0.031 |
| UAGUGAGUCAGGAUCUCUGAGAGAUUAAGA | 0.00166 ± 0.0034 |
| UAGUGACAGUCCUUCUCUGAGAGUUUAAGA | 0.000782 ± 0.0088 |
| AUCAUCUGUCACCUUCUCUGAGAGAUUAACA | 0.74 ± 0.035 |
| UACACUGUCACCUUCUCUGAGAGAUUACCA | 0.152 ± 0.024 |
| UAGUGACACACCUUCUCUGACUGAUUAACA | 0.00283 ± 0.0037 |
| UAGUGAGUCAGCUUCUCUGAGAGAAUAACA | 0.199 ± 0.032 |
| UAGUCUGUCACCUUCUGACAGAGAUUAACA | 0.00156 ± 0.0078 |
| UAGUGACAGUGGAAGAGUGAGCAGAUUAACA | 0.0015 ± 0.0034 |
| AUCUCUGUCACCAUCUCUGAGAGAUUAACA | 0.633 ± 0.03 |
| UAGUGACAGUGCUUCAUCUGAGAGAUUAACA | 0.00237 ± 0.0035 |
| UAGUGACAGACCAUCUGUGAGAGAUUAACA | 0.00286 ± 0.0041 |
| UAGUGACAGUGGAAGAGUGCGAGAUUAACA | 0.00083 ± 0.01 |
| UAGUGUGUCACCUAGUCUGAGAGAUUUUGA | 0.000299 ± 0.029 |
| UACACUGUCACCUUCUCUGAGAGAUUAACG [g2:g28:cont:t1G] | 0.566 ± 0.047 |
| UUCACUGUCACCUUACUCUGAGAGAUUAACA | 0.522 ± 0.026 |
| UUCACUGUCACCUUCUCUGACUGAUUAAGA | 0.00224 ± 0.0032 |
| UAGUCUGUCACCUUCUCUGACUCAUUAUGA | 0.00102 ± 0.0053 |
